{"source": "patent US10060892B2", "about": "“Tripodal nitrate receptor” (University of Oregon, priority 2013, dated 2018)", "type_in_all_cases": "binding", "key": {"[1]": {"assay": "1H NMR titration with TBA nitrate in 10% DMSO-d6/CDCl3", "settings": "NO3^−; for Δδ(H^c): nitrophenyl proton H^c; for Δδ(H^d): nitrophenyl proton H^d; for Δδ(H^a): urea proton H^a; for Δδ(H^b): urea proton H^b", "text": "(§1) To simplify the mode of binding in these receptors, as well as to lower the association constant of nitrate and bromide to a measurable amount, other solvent systems were investigated. Low solubility of the tripodal receptors limited the solvent possibilities. We also aimed to maintain competition between binding of the anion and solvent molecules to provide further evidence for the strong binding of nitrate in competitive solvents, a critical feature for applications in environmental monitoring. […] In addition, DMSO is a strong hydrogen bond acceptor, thus a lower association constant would be expected. Initial upfield shifts, followed by downfield shifts of the urea protons were observed upon the addition of TBANO3 1 mM solutions of 1 in 2% DMSO-d6/CDCl3 and 5% DMSO-d6/CDCl3. The titration curves indicate a more complicated system than a 1:1 model; however, the data still could not be fit to a standard model. Raising the DMSO concentration to 10% DMSO-d6/CDCl3 decreased the overall change in chemical shift of the urea protons (FIG. 3), but a smooth binding curve is observed, indicating self-aggregation (and likely ion-pairing) is no longer occurring. As suspected, titrations of TBA salts of nitrate, bromide, chloride, and iodide fit to a 1:1 model when performed in 10% DMSO-d6/CDCl3 (Table 1).\n(§2) Titrations in 10% DMSO-d6/CDCl3 were performed at a constant 1 mM concentration of 1. The change in chemical shift was monitored throughout the titration and fit to a 1:1 model using linear regression analysis. […] The binding constants of each anion investigated and the calculated total Δδ values based on the determined constant are presented in Table 2. The largest changes in chemical shift for each anion are observed in the urea protons of 1, H^a and H^b.\nSimilar to 1, host:guest complexes of 2 were investigated through 1H NMR spectroscopy titrations in 10% DMSO-d6/CDCl3. Titrations were performed at approximately 1 mM 2 with TBA salts of Cl^− and NO3^−. The urea protons (H^a and H^b), nitrophenyl protons (H^c and H^d), and core proton (H^core) were monitored throughout the titrations. For consistency, only H^a, H^b, H^c, and H^d were used to fit the data to a 1:1 model, as was done with 1. All changes in chemical shift began to level off near 1 equiv. of anion and are presented in Table 1 with the association constants corresponding to NO3^− and Cl^−. The values reported for H^a, H^b, H^c, and H^d are averages derived from the individual association constants of each titration, while the values for H^core are averaged from the observed changes during the titration. Replacing the fluorine atoms with hydrogens changes not only the electronics, but also the number of hydrogen bond donors. […] The large increase in Ka for Cl^− can be attributed to the addition of a hydrogen bond with H^core, assigned from the titration of 2 (FIG. 4a). […] The association constant for NO3^− with 2 trends with the noted correlation and indicates 2 may bind NO3^− by a similar mode as 1, but binds Cl^− through a different mode. More importantly, no significant shift of H^core occurs upon the addition of nitrate to 2 (FIG. 4b), thus there is no hydrogen bonding of the anion to H^core, indicating an anion-π interaction may still be the preferred mode of binding in spite of the more electron-rich arene. Three important results stem from the investigation of 2: nitrate selectivity is lost, the association constant of nitrate is diminished, and nitrate binds via a different mode than chloride."}, "[2]": {"assay": "1H NMR titration with TBA chloride in 10% DMSO-d6/CDCl3", "settings": "Cl^−; for Δδ(H^c): nitrophenyl proton H^c; for Δδ(H^d): nitrophenyl proton H^d; for Δδ(H^a): urea proton H^a; for Δδ(H^b): urea proton H^b"}, "[3]": {"assay": "1H NMR titration with TBA bromide in 10% DMSO-d6/CDCl3", "settings": "Br^−", "text": "as §1, §2"}, "[4]": {"assay": "1H NMR titration with TBA iodide in 10% DMSO-d6/CDCl3", "settings": "I^−", "text": "as §1, §2"}}, "data": [{"molecule": "CC(C)(C)c1ccc(NC(=O)Nc2ccc([N+](=O)[O-])cc2)c(C#Cc2cc(C#Cc3cc(C(C)(C)C)ccc3NC(=O)Nc3ccc([N+](=O)[O-])cc3)cc(C#Cc3cc(C(C)(C)C)ccc3NC(=O)Nc3ccc([N+](=O)[O-])cc3)c2)c1", "note": "[compound 2]", "values": [{"measurement": "Δδ(H^conc)", "setting": "[1]; core proton", "result": "<0.01", "unit": "ppm"}, {"measurement": "Δδ(H^c)", "setting": "[1]", "result": 0.12, "unit": "ppm"}, {"measurement": "Δδ(H^d)", "setting": "[1]", "result": "−0.06", "unit": "ppm"}, {"measurement": "Δδ(H^a)", "setting": "[1]", "result": 0.19, "unit": "ppm"}, {"measurement": "Δδ(H^b)", "setting": "[1]", "result": 0.27, "unit": "ppm"}, {"measurement": "Δδ(H^conc)", "setting": "[2]; core proton", "result": 0.31, "unit": "ppm"}, {"measurement": "Δδ(H^c)", "setting": "[2]", "result": 0.21, "unit": "ppm"}, {"measurement": "Δδ(H^d)", "setting": "[2]", "result": "−0.07", "unit": "ppm"}, {"measurement": "Δδ(H^a)", "setting": "[2]", "result": 0.12, "unit": "ppm"}, {"measurement": "Δδ(H^b)", "setting": "[2]", "result": 0.97, "unit": "ppm"}]}, {"molecule": "CC(C)(C)c1ccc(NC(=O)Nc2ccc([N+](=O)[O-])cc2)c(C#Cc2c(F)c(C#Cc3cc(C(C)(C)C)ccc3NC(=O)Nc3ccc([N+](=O)[O-])cc3)c(F)c(C#Cc3cc(C(C)(C)C)ccc3NC(=O)Nc3ccc([N+](=O)[O-])cc3)c2F)c1", "note": "[compound 1]", "values": [{"measurement": "Δδ(H^c)", "setting": "[1]", "result": 0.10, "unit": "ppm"}, {"measurement": "Δδ(H^d)", "setting": "[1]", "result": "−0.10", "unit": "ppm"}, {"measurement": "Δδ(H^a)", "setting": "[1]", "result": 0.26, "unit": "ppm"}, {"measurement": "Δδ(H^b)", "setting": "[1]", "result": 0.39, "unit": "ppm"}, {"measurement": "Δδ(H^c)", "setting": "[2]", "result": 0.17, "unit": "ppm"}, {"measurement": "Δδ(H^d)", "setting": "[2]", "result": "−0.15", "unit": "ppm"}, {"measurement": "Δδ(H^a)", "setting": "[2]", "result": 0.21, "unit": "ppm"}, {"measurement": "Δδ(H^b)", "setting": "[2]", "result": 0.99, "unit": "ppm"}, {"measurement": "Δδ(H^c)", "setting": "[3]; nitrophenyl proton H^c", "result": 0.17, "unit": "ppm"}, {"measurement": "Δδ(H^d)", "setting": "[3]; nitrophenyl proton H^d", "result": "−0.11", "unit": "ppm"}, {"measurement": "Δδ(H^a)", "setting": "[3]; urea proton H^a", "result": 0.16, "unit": "ppm"}, {"measurement": "Δδ(H^b)", "setting": "[3]; urea proton H^b", "result": 0.62, "unit": "ppm"}, {"measurement": "Δδ(H^c)", "setting": "[4]; nitrophenyl proton H^c", "result": 0.16, "unit": "ppm"}, {"measurement": "Δδ(H^d)", "setting": "[4]; nitrophenyl proton H^d", "result": "−0.07", "unit": "ppm"}, {"measurement": "Δδ(H^a)", "setting": "[4]; urea proton H^a", "result": 0.12, "unit": "ppm"}, {"measurement": "Δδ(H^b)", "setting": "[4]; urea proton H^b", "result": 0.29, "unit": "ppm"}]}]}
